The nature of test [1]: qHTS Assay for Inhibitors of PDE-IV (AID 607). As to conditions: HEK293 ACTOne CNG channel cells, membrane potential fluorescence; measured here: parental cell counter-screen. The essentials:
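HEK293 ACTOne cells with CNG channel (1000/well), endogenous PDE4; membrane potential dye, compounds up to 22.9 uM final. Fluorescence Ex 535/Em 590; RO 20-1724 (100 uM final) as reference.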
A general note: Quantitative high-throughput screening tests each substance at several concentrations.

The chains behind the UniProt entries cited, without tags or fusion partners. Where a name states a change or a piece, a line headed by the entry shows the natural chain unless it says otherwise.
UniProt P21964: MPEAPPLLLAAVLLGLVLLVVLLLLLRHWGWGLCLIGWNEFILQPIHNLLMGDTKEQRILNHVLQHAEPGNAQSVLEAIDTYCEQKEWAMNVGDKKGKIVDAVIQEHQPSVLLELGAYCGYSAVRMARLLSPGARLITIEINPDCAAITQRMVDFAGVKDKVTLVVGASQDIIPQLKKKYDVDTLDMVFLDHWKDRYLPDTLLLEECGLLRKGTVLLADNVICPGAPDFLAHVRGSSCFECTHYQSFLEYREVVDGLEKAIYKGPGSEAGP
UniProt P40261: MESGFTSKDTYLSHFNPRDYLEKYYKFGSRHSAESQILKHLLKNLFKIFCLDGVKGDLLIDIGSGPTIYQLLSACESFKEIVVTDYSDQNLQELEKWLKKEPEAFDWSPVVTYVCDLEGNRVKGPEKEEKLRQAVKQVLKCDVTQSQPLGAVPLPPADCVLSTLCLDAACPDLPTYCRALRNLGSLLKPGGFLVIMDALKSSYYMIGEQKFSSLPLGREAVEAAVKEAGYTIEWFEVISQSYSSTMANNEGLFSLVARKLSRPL

Test [2] in a line: qHTS Assay for Lipid Storage Modulators (AID 1519). As to conditions: Drosophila S3 cells, BODIPY lipid droplet/cell ratio, laser cytometry, cells loaded with oleic acid. The essentials: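 Cells seeded at 5,000 per well were treated with compounds over a concentration series and loaded with oleic acid (400 uM, as added). Lipid droplet fluorescence (488 nm excitation, 500-530 nm channel) was read by laser-scanning cytometry and normalized to 20 uM Triacsin C.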

Test [3] can be described thus: S16 Schwann cell PMP22 intronic element beta-lactamase assay (AID 624044). As to conditions: S16 rat Schwann cells, PMP22 element beta-lactamase FRET, 24 h. The essentials:
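Beta-lactamase reporter under a PMP22 intronic regulatory element in stable S16 rat Schwann cells; 24 h compound exposure. 460 nm blue signal normalized between DMSO (0%) and potassium clavulanate, with 535 nm FRET tracking viability; curves classed by r2 and response.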

A short description of test [4]: A High-Content qHTS Against Drug Library for the Identification of Small Molecules that Inhibit DYT1 Early Onset Primary Dystonia-Associated Cell Pathology (AID 1645839). As to conditions: HEK293 Flp-In EGFP-delE TorsinA, punctate imaging, 48 h; measured here: cell count cytotoxicity. The essentials:
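High-content imaging quantified EGFP-TorsinA mislocalization in HEK293-derived cells inducibly expressing DYT1 mutant torsinA, after 48 h exposure to compound given together with tetracycline induction. Cell count served as a toxicity channel alongside %pathology.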

Test [5] in a line: qHTS drug screen for cell cycle checkpoint inhibitors in PARPi-resistant BRCA-mutant ovarian cancer cell lines. (AID 1963452). As to conditions: PEO1/OlaR viability, CellTiter-Glo luminescence, 96 h. The essentials:
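PEO1, PEO4 and PEO1/OlaR ovarian cancer cells, 600 per well, exposed 96 h at 37C to a dilution series. Viability read by CellTiter-Glo luminescence, normalized to DMSO and empty wells; activity summarized as Z-AUC.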

Test [6] in a line: qHTS Validation Assay to Find Inhibitors of Chronic Active B-Cell Receptor Signaling (AID 485345). As to conditions: ABC-DLBCL cells, chronic BCR signaling reporter. The essentials: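 Read-out: ratio of filter-corrected green (IkappaBalpha fusion) to red (native) luciferase signal in doxycycline-induced TMD8 cells after 4 h at 37C. Titration spanned 46 uM–3 nM; Data were normalised to basal cells and 10 uM MG-132 wells.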

Test [7] can be described thus: qHTS Assay for Modulators of Human Peripheral Myelin Protein 22 (PMP22) Expression/Activity (AID 1967). As to conditions: Cell-based PMP22 reporter, dual-color luciferase ratio. The essentials: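 Engineered MSC80 cells, Pmp22-promoter green and EF-alpha red luciferase reporters; 24h compound treatment at 37 °C. Concentration-response fits on green, red and ratio signals, each overlap-corrected, with %Activity normalized to untreated wells.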

Test [8] can be described thus: Nrf2 qHTS screen for inhibitors: Validation (AID 493153). As to conditions: A549 ARE-Fluc reporter, 18-24 h; AC50: CellTiter-Fluor fluorescence read, measured here: cytotoxicity CellTiter-Fluor AC50; viability change: measured here: cytotoxicity max response. The essentials:
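Concentration-response on A549 ARE_Fluc reporter cells exposed 18-24 h at 37 C, 5% CO2. Cytotoxicity read first by CellTiter-Fluor fluorescence (Ex 405/Em 525), then Nrf2 inhibition by BugLite luminescence after 15 min.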

For test [9], the target named is Catechol O-methyltransferase (Homo sapiens) (UniProt P21964). Put plainly: Confirmatory Screen for Target Class Profiling of Small Molecule Inhibitors of Methyltransferases (AID 1745852). As to conditions: MTase-Glo luminescence, SAH detection, recombinant enzyme; measured here: COMT inhibition potency.
The target in test [10] is Nicotinamide N-methyltransferase (Homo sapiens) (UniProt P40261). The test is described as above. As to conditions: MTase-Glo luminescence, SAH detection, recombinant enzyme; measured here: NNMT inhibition potency.
Setting [11] is: measured here: cell count channel max response.
[12] abbreviates: measured here: cell number channel AC50.
The mark [13] stands for this setting: measured here: lipid (BODIPY) channel AC50.
[14] abbreviates: measured here: lipid channel max response.
The mark [15] stands for this setting: measured here: 460 nm blue channel.
[16] abbreviates: measured here: CBR control luciferase (viability counter).
The mark [17] stands for this setting: measured here: red reporter channel AC50, EF-alpha promoter control reporter in MSC80 mouse Schwann cells.
Setting [18] is: measured here: 530 nm viability channel.

“And” between values parts separate entries of the source, which are not always exact repeats. Equal entries are not always repeated. The list shows a part of the results. These are further read-outs of the screen, such as a control signal, another cell line or another target. No call is given for them. For some assays here: Compounds called inactive in the main read-out are mostly missing here. Potencies come from curve fits of mixed quality, noted in brackets.

What is called AC50 is the concentration at which the activity in the assay is half-maximal. A word on the IC50: it is the concentration needed to halve the response being measured.

With `CCOC(=O)C1=C[C@@]2(CC)CCCN3CCc4c(n1c1ccccc41)[C@H]32`, the AC50 in test [1] is 25.1 µM [rising, single point]; in test [2] (setting [12]), 35.5 µM [rising, single point]; in test [2] (setting [13]) it was 39.8 µM [rising, partial curve, poor fit]; in test [3] (setting [15]), 1.99 µM [falling, full curve, poor fit]. Besides, the max response in [2] (setting [11]) was found to be 53.2%; in test [2] (setting [14]), 83.4%.
Take `CCCCN(CCCC)CCC(O)c1cc2c(Cl)cc(Cl)cc2c2cc(C(F)(F)F)ccc12` (stereo unspecified): the max response was -29.6% in [2] (setting [11]) and -33.1% in test [2] (setting [14]). In addition, the AC50 was 12.6 µM [falling, partial curve, poor fit] in [2] (setting [13]); 7.94 µM [falling, partial curve, poor fit] in [4]; 17.4 µM [falling, single point] in test [5] (measured here: PEO1 parental viability); 21.9 µM [falling, single point] in test [5] (measured here: PEO4 viability).
Turning to `O=C(COc1ccc(Cl)cc1)N1CCN(Cc2ccc3c(c2)OCO3)CC1`, the figures for the max response in [2] (setting [11]) and in test [2] (setting [14]) were 17.9% and 34.6%, respectively. Further, the AC50 is 1 µM [rising, full curve, poor fit] in test [2] (setting [13]); 0.631 µM [falling, full curve, poor fit] in [3] (setting [15]); 0.501 µM [falling, full curve, poor fit] in test [4].
Consider `COc1ccc(C2C(=O)c3ccccc3C2=O)cc1`, for which the max response in test [2] (setting [11]) worked out at 31%; in test [2] (setting [14]), 61.6%. Further, the AC50 in test [2] (setting [12]) is 22.4 µM [rising, single point]; in test [2] (setting [13]), 39.8 µM [rising, single point]; in [3] (setting [15]), 1.78 µM [falling, partial curve, poor fit].
Consider `CC(NCCC(c1ccccc1)c1ccccc1)c1ccccc1` (stereo unspecified), for which the max response in test [2] (setting [11]) is -21%; in test [2] (setting [14]), -34.7%. For the same compound, the AC50 in test [2] (setting [13]) was 17.8 µM [falling, single point]; in test [4] it was 8.91 µM [falling, partial curve, poor fit].
On to `OC(CCN1CCCCC1)(c1ccccc1)C1CCCCC1` (stereo unspecified), for which the max response turned out to be 23.4% in [2] (setting [11]) and 34.6% in test [2] (setting [14]). The AC50 was 39.8 µM [rising, single point] in [2] (setting [13]); 3.66 µM [falling, full curve] in test [6] (setting [16]); 11.2 µM [falling, partial curve, poor fit] in [4].
As for `CCOC(=O)c1ccc(N)cc1`, the max response came to 20.1% in test [2] (setting [11]) and 36.7% in test [2] (setting [14]). Also, the AC50 in [2] (setting [13]) is 2.82 µM [rising, partial curve]; in test [4] it was 3.16 µM [falling, full curve, poor fit].
Take `CSc1ccc2c(c1)N(CCC1CCCCN1C)c1ccccc1S2` (stereo unspecified): the max response in test [2] (setting [11]) was -89.4%; in test [2] (setting [14]), -101%. For the same compound, the AC50 in test [2] (setting [13]) is 39.8 µM [falling, partial curve, poor fit]; in test [7] (measured here: green reporter channel AC50, mouse Pmp22 promoter in mouse Schwann cells), 26.9 µM [falling, full curve]; in test [7] (setting [17]), 26.9 µM [falling, full curve]; in [6] (measured here: CBG/CBR ratio read-out) it was 11.6 µM [falling, partial curve]; in test [6] (setting [16]), 10.3 µM [falling, partial curve]; in test [8] it was 8.2 µM [falling, partial curve, poor fit]. In addition, in [4], the AC50 was 17.8 µM [falling, partial curve, poor fit]. Moreover, the viability change in [8] was -27.4%.
As to `O=C(O)CN(CC(=O)O)Cc1cc2c(-c3ccccc3C(=O)O)c3cc(CN(CC(=O)O)CC(=O)O)c(=O)cc-3oc2cc1O`, the max response was -102% in [2] (setting [11]) and -99.5% in test [2] (setting [14]). Further, the AC50 is 1.26 µM [falling, full curve] in test [2] (setting [12]); 0.891 µM [falling, full curve] in test [2] (setting [13]); 15.8 µM [rising, partial curve] in [3] (setting [18]).
In the case of `C[C@H](NC(=O)/C(C#N)=C/c1ccc(O)c(O)c1)c1ccccc1`, the max response in test [2] (setting [11]) was 72.4% and 30.5%; in test [2] (setting [14]) it was 6.93% and 29.1%. In addition, the AC50 in test [2] (setting [12]) was 31.6 µM [rising, partial curve, poor fit] and 25.1 µM [falling, partial curve, poor fit]; in test [7] (setting [17]), 37.9 µM [falling, partial curve, poor fit]. Further, the IC50 in [9] was 12.2 µM [rising, full curve]; in [10], 27.3 µM [falling, partial curve].
Take `CC(C)(C)CC(C)(C)c1ccc(O)c(Cc2ccc(Cl)cc2Cl)c1`: the figures for the max response in test [2] (setting [11]) and in test [2] (setting [14]) were -63.6% and -76.9%, respectively. In addition, the AC50 in test [2] (setting [12]) is 39.8 µM [falling, single point]; in test [3] (setting [15]), 25.1 µM [falling, single point]; in test [4] it was 2.82 µM [falling, full curve, poor fit].
For `O=C(O)c1cc(O)c(O)c(O)c1`, the max response in test [2] (setting [11]) was 16%; in test [2] (setting [14]), 34.1%. The AC50 was 25.1 µM [rising, single point] in test [2] (setting [13]) and 3.55 µM [falling, partial curve, poor fit] in test [4].
Turning to `C=C1C(=O)O[C@@H]2[C@@H]1CC/C(C)=C\CC[C@@]1(C)O[C@H]21`, the max response in [2] (setting [11]) is -61.8%; in test [2] (setting [14]), -95%. Also, the AC50 is 14.1 µM [falling, partial curve, poor fit] in test [2] (setting [12]); 14.1 µM [falling, partial curve] in test [2] (setting [13]); 25.1 µM [falling, single point] in test [3] (setting [15]); 28.2 µM [rising, single point] in [3] (setting [18]).

The record behind these values is PubChem BioAssay (NCATS).
